The list is a part of this screen's results and no random one: it is rich in T/C values a quarter to a half above the control, in often repeated tests (any T/C) and in doses without a T/C. Other doses and runs of a compound stand elsewhere. T/C is the treated group as % of the vehicle group. Some doses have a count of surviving animals in place of a T/C: the source holds a T/C of zero for them, seemingly a mark for toxic or unscored doses. Some survivor counts are full or nearly so, which does not show that the dose was tolerated: survival well below the control is almost never listed, so the zero probably covers shortened survival too. Counts of survivors are from the toxicity check (mostly the fifth day) where no day follows; animals may have died later. Schedule codes are those of the source, read here as Q, the interval in days (D) or hours (H), X, the number of doses. Some entries were tested several times; their values stand side by side, smallest first. Some molecules as drawn cover several salts, stereoisomers or complexes of the source; a dose is that of the sample tested. For survival time, the PubChem record calls one and a half times the control and up active, and a quarter to a half above the control has no call in these data; cut-offs in other NCI protocols can differ. Some T/C values carry the count of animals alive at the toxicity check (mostly the fifth day); without a count, all were alive then.
Tested on: P388 leukemia ip, CD2F1 mice, survival T/C
Assay: NCI In Vivo Anticancer Drug Screen. Data for tumor model P388 Leukemia (intraperitoneal) in CD2F1 (CDF1) mice
Conditions: T/C endpoint: median survival time, higher T/C = longer survival
[1] = dose: 200.0 mg/kg/injection, schedule: Q01DX009 (ip), vehicle: saline with Tween-80
[2] = dose: 50.0 mg/kg/injection, schedule: Q01DX005 (ip), vehicle: Klucel (hydroxypropylcellulose) (HPC)
[3] = dose: 200.0 mg/kg/injection, schedule: Q04DX003 (ip), vehicle: saline with Tween-80
[4] = dose: 50.0 mg/kg/injection, schedule: Q01DX009 (ip), vehicle: saline with Tween-80
[5] = dose: 25.0 mg/kg/injection, schedule: Q01DX009 (ip), vehicle: saline with Tween-80
[6] = dose: 200.0 mg/kg/injection, schedule: Q01DX005 (ip), vehicle: Klucel (hydroxypropylcellulose) (HPC)
[7] = dose: 25.0 mg/kg/injection, schedule: Q01DX005 (ip), vehicle: saline with Tween-80
[8] = dose: 100.0 mg/kg/injection, schedule: Q01DX005 (ip), vehicle: saline with Tween-80
[9] = dose: 200.0 mg/kg/injection, schedule: Q01DX005 (ip), vehicle: saline with Tween-80
[10] = dose: 400.0 mg/kg/injection, schedule: Q04DX003 (ip), vehicle: saline with Tween-80

Structure (SMILES): Cc1c(C=[N+]2CCCCC2)c2ccccc2n1C
- survivor count [1]: 2 of 6

Structure (SMILES): COc1cc(NS(C)(=O)=O)ccc1Nc1c2ccc([N+](=O)[O-])cc2nc2c(C)cccc12
- survivor count (dose: 12.0 mg/kg/injection, schedule: Q01DX009 (ip), vehicle: saline with Tween-80): 6 of 6
- survivor count (dose: 18.0 mg/kg/injection, schedule: Q04DX003 (ip), vehicle: saline with Tween-80): 6 of 6
- survivor count (dose: 25.0 mg/kg/injection, schedule: Q04DX003 (ip), vehicle: saline sonified): 6 of 6
- survivor count (dose: 50.0 mg/kg/injection, schedule: Q04DX003 (ip), vehicle: saline sonified): 5 of 6
- survivor count (dose: 100.0 mg/kg/injection, schedule: Q04DX003 (ip), vehicle: saline sonified): 4 of 6

Structure (SMILES): CCCCCC[Se][Se]CCCCCC
- survivor count [2]: 2 of 6

Structure (SMILES): CC1(C)N=C(N)N=C(N)N1c1ccc(CCc2ccc(S(=O)(=O)F)cc2)c(Cl)c1
- T/C (dose: 50.0 mg/kg/injection, schedule: Q04DX003 (ip), vehicle: saline with Tween-80): 136 % of control
- T/C (dose: 75.0 mg/kg/injection, schedule: Q04DX003 (ip), vehicle: saline sonified): 131 % of control [5 of 6 alive]

Structure (SMILES): NC(=O)N/N=C1\CCn2cccc21
- survivor count (dose: 240.0 mg/kg/injection, schedule: Q01DX005 (ip), vehicle: saline with Tween-80): 6 of 6

Structure (SMILES): CC(=O)OC1CC(n2cc(C)c(=O)[nH]c2=O)OC1COP(=O)(N1CC1)N1CC1 (stereo not given)
- T/C [3]: 142 % of control

Structure (SMILES): CCCN=C(N)N=C(N)N
- survivor count [4]: 5 of 6
- survivor count (dose: 100.0 mg/kg/injection, schedule: Q01DX009 (ip), vehicle: saline with Tween-80): 5 of 6
- survivor count [1]: 3 of 6

Structure (SMILES): CN(C)c1nc(N(C)C)oc(=[N+](C)C)n1
- survivor count (dose: 50.0 mg/kg/injection, schedule: Q01DX005 (ip), vehicle: saline): 0 of 6
- survivor count (dose: 100.0 mg/kg/injection, schedule: Q01DX005 (ip), vehicle: saline): 0 of 6
- survivor count (dose: 200.0 mg/kg/injection, schedule: Q01DX005 (ip), vehicle: saline): 0 of 6

Structure (SMILES): O=C1NC(=O)C2C1C1C3OC3C2C2C3C(=O)NC(=O)C3C12 (stereo not given)
- T/C [5]: 130 % of control
- T/C [4]: 127 and 141 % of control
- T/C [1]: 141 % of control

Structure (SMILES): O=C(S)CC(O)(CCl)c1ccc(-c2ccccc2)cc1 (stereo not given)
- survivor count (dose: 400.0 mg/kg/injection, schedule: Q04DX002 (ip), vehicle: Klucel (hydroxypropylcellulose) (HPC)): 1 of 6

Structure (SMILES): COC(=O)c1c(C(=O)OC)c(Nc2ccccc2)c2ccccc2c1O
- survivor count [2]: 1 of 6
- survivor count (dose: 100.0 mg/kg/injection, schedule: Q01DX005 (ip), vehicle: Klucel (hydroxypropylcellulose) (HPC)): 0 of 6
- survivor count [6]: 0 of 6

Structure (SMILES): O=C1SCCC1CO (stereo not given)
- survivor count (dose: 100.0 mg/kg/injection, schedule: Q04DX003 (ip), vehicle: saline): 1 of 6

Structure (SMILES): Nc1c(SSc2ccc3ccccc3c2N)ccc2ccccc12
- survivor count (dose: 50.0 mg/kg/injection, schedule: Q01DX001 (ip), vehicle: Klucel (hydroxypropylcellulose) (HPC)): 6 of 6
- survivor count (dose: 100.0 mg/kg/injection, schedule: Q01DX001 (ip), vehicle: Klucel (hydroxypropylcellulose) (HPC)): 6 of 6
- survivor count (dose: 200.0 mg/kg/injection, schedule: Q01DX001 (ip), vehicle: Klucel (hydroxypropylcellulose) (HPC)): 6 of 6

Structure (SMILES): Cc1nnc2c([Se])nccn12
- survivor count (dose: 400.0 mg/kg/injection, schedule: Q01DX001 (ip), vehicle: saline with Tween-80): 2 of 6

Structure (SMILES): CC1CCN(C(=S)NNC(C)c2cc3ccccc3cn2)CC1 (stereo not given)
- T/C (dose: 12.5 mg/kg/injection, schedule: Q01DX005 (ip), vehicle: saline with Tween-80): 137 and 139 % of control
- T/C [7]: 145 % of control
- survivor count [7]: 6 of 6
- survivor count (dose: 50.0 mg/kg/injection, schedule: Q01DX005 (ip), vehicle: saline with Tween-80): 0 of 6
- survivor count [8]: 0 of 6
- survivor count [9]: 0 of 6

Structure (SMILES): CC(C)c1ccc(O)c(O)c1
- survivor count [1]: 1 of 6

Structure (SMILES): O=C1OCC/C1=C1\CCCO1
- T/C [4]: 125 % of control

Structure (SMILES): O=S1(=O)CC2(N3CCOCC3)C3CCC(C3)C21 (stereo not given)
- survivor count [10]: 4 of 6 and 5 of 6

Structure (SMILES): COc1cc(N)ccc1NC(=O)c1ccccc1
- survivor count [5]: 3 of 6

Structure (SMILES): CNC(=O)OCC1=C(Sc2ccccc2)C(=O)C(OC)=C(OC)C1=O
- survivor count [8]: 0 of 6
- survivor count [9]: 0 of 6

Structure (SMILES): CCCCSc1ccc(NN=O)nc1
- T/C (dose: 6.25 mg/kg/injection, schedule: Q01DX009 (ip), vehicle: water): 142 % of control
- survivor count (dose: 12.5 mg/kg/injection, schedule: Q01DX009 (ip), vehicle: water): 6 of 6
- survivor count (dose: 25.0 mg/kg/injection, schedule: Q01DX009 (ip), vehicle: water): 0 of 6 and 4 of 6
- survivor count (dose: 50.0 mg/kg/injection, schedule: Q01DX009 (ip), vehicle: water): 1 of 6

Structure (SMILES): CSC(SC)=C1C(=O)NC(=O)NC1=O
- T/C [5]: 126 % of control
- survivor count (dose: 50.0 mg/kg/injection, schedule: Q01DX009 (ip), vehicle: saline): 3 of 6
- survivor count (dose: 100.0 mg/kg/injection, schedule: Q01DX009 (ip), vehicle: saline): 0 of 6
- survivor count [6]: 0 of 5
- survivor count (dose: 200.0 mg/kg/injection, schedule: Q01DX009 (ip), vehicle: saline): 0 of 6

Structure (SMILES): Nc1nc(-c2ccccn2)cc(-c2cc(-c3ccccn3)nc(N)n2)n1
- survivor count (dose: 240.0 mg/kg/injection, schedule: Q01DX005 (ip), vehicle: Klucel (hydroxypropylcellulose) (HPC)): 0 of 6

Structure (SMILES): Cn1ncc2c(NCCc3ccccc3)ncnc21
- survivor count [3]: 0 of 6
- survivor count [10]: 0 of 6

Structure (SMILES): O=[N+]([O-])/C=C/c1ccccc1Cl
- T/C (dose: 5.0 mg/kg/injection, schedule: Q01DX009 (ip), vehicle: other): 126 % of control
- T/C (dose: 15.0 mg/kg/injection, schedule: Q04DX003 (ip), vehicle: other): 136 % of control
- survivor count (dose: 20.0 mg/kg/injection, schedule: Q01DX009 (ip), vehicle: other): 6 of 6
- survivor count (dose: 40.0 mg/kg/injection, schedule: Q01DX009 (ip), vehicle: other): 0 of 6
- survivor count (dose: 60.0 mg/kg/injection, schedule: Q04DX003 (ip), vehicle: other): 4 of 6
- survivor count (dose: 120.0 mg/kg/injection, schedule: Q04DX003 (ip), vehicle: other): 0 of 6

Structure (SMILES): O=C(N/N=C/c1ccccn1)c1ccccc1[O-].O=C(N/N=C/c1ccccn1)c1ccccc1[O-].[Co+2]
- survivor count [6]: 0 of 6

Structure (SMILES): CSC(=Cc1ccc2cc(Br)ccc2[n+]1C)SC
- T/C (dose: 12.5 mg/kg/injection, schedule: Q01DX009 (ip), vehicle: Klucel (hydroxypropylcellulose) (HPC)): 125 and 127 % of control
- survivor count (dose: 25.0 mg/kg/injection, schedule: Q01DX009 (ip), vehicle: Klucel (hydroxypropylcellulose) (HPC)): 0 of 6
- survivor count (dose: 50.0 mg/kg/injection, schedule: Q01DX009 (ip), vehicle: Klucel (hydroxypropylcellulose) (HPC)): 1 of 6
- survivor count (dose: 100.0 mg/kg/injection, schedule: Q01DX009 (ip), vehicle: Klucel (hydroxypropylcellulose) (HPC)): 0 of 6
- survivor count (dose: 200.0 mg/kg/injection, schedule: Q01DX009 (ip), vehicle: Klucel (hydroxypropylcellulose) (HPC)): 0 of 6

Structure (SMILES): C[n+]1c2ccccc2c(Nc2ccc(NS(=O)(=O)CCCCN=C(N)N)cc2)c2ccc(N)cc21
- T/C (dose: 6.0 mg/kg/injection, schedule: Q01DX005 (ip), vehicle: Klucel (hydroxypropylcellulose) (HPC)): 144 % of control

Structure (SMILES): CS(=O)(=O)OCC(COS(C)(=O)=O)(COS(C)(=O)=O)COS(C)(=O)=O
- survivor count (dose: 400.0 mg/kg/injection, schedule: Q01DX009 (ip), vehicle: Klucel (hydroxypropylcellulose) (HPC)): 6 of 6

Structure (SMILES): N#CC1=C(C#N)C(=O)C(Br)=C(Br)C1=O
- survivor count (dose: 50.0 mg/kg/injection, schedule: Q01DX005 (ip), vehicle: Klucel + Tween-80): 3 of 6
- survivor count (dose: 100.0 mg/kg/injection, schedule: Q01DX005 (ip), vehicle: Klucel + Tween-80): 0 of 6
- survivor count (dose: 200.0 mg/kg/injection, schedule: Q01DX005 (ip), vehicle: Klucel + Tween-80): 0 of 6
